{"sequences": {"note": "The chains behind the UniProt entries cited, without tags or fusion partners. Residues count along the entry.", "UniProt P10719, residues 47-529": "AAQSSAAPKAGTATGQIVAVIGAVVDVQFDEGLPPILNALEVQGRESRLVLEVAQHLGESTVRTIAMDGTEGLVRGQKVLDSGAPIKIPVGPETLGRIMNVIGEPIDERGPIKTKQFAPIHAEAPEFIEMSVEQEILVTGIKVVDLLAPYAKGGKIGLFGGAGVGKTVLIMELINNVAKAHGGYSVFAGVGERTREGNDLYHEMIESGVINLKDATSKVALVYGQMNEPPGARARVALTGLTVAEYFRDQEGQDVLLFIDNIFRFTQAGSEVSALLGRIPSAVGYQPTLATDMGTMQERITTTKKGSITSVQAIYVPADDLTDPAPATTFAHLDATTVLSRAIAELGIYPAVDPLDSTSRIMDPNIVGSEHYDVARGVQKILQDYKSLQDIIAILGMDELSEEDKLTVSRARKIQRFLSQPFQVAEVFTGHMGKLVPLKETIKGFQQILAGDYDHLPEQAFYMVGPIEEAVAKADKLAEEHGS"}, "source": "paper PMC4818453", "molecular_target": "T1, full-length GST-CASK (rat) (UniProt Q62915)", "T1 sequence": "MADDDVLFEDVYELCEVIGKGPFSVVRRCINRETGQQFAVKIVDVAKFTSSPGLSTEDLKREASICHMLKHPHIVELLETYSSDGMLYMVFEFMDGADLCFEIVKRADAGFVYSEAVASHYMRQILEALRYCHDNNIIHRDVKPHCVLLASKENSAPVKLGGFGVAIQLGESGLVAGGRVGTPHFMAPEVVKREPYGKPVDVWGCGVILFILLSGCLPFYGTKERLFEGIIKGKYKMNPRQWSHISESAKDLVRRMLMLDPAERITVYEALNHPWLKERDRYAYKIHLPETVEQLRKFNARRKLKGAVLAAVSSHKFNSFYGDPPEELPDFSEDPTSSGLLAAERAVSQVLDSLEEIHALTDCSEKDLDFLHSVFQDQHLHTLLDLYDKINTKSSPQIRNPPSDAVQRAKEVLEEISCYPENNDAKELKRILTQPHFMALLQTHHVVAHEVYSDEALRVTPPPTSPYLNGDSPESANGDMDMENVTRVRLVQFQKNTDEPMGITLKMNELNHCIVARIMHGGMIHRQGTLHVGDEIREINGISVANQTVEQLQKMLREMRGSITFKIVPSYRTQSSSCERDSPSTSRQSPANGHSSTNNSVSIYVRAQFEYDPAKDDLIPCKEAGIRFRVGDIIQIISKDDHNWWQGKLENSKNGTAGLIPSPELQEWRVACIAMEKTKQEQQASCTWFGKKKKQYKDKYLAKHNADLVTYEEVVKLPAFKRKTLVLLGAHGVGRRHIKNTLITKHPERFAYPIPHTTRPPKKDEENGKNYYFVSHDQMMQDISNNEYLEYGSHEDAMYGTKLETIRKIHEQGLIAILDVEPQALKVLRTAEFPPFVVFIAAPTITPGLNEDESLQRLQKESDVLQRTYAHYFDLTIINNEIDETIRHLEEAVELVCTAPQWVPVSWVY", "assay": "pull-down; full-length GST-CASK or GST immobilised on glutathione resin; rat brain homogenate; bound proteins detected by immunoblot; only the target purified", "note": "These are yes or no findings as the source states them, for the method shown. Binding seen in cells or lysates may run through a third protein. Some results given as binding are weak or reduced against the parent protein; the word gives no strength. Tags and fused reporters may be left off the sequences shown."}
{"substance": "mitochondrial ATP synthase β subunit (from UniProt P10719 47-529)", "values": [{"measurement": "binding", "value": "binds"}]}
